From US9133237B2 (priority 2009, dated 2015)

Test: general procedure: solution-phase peptide synthesis; DCC/HOBt (coupling); HATU/diisopropyl ethyl amine (cyclisation)
Details: cyclisation step

Row | Substance | cyclisation yield [%]
1 | (3S,9S,14aR)-9-benzyl-3-(but-3-enyl)-6,6-dimethyl decahydropyrrolo[1,2-a][1,4,7,10]tetraazacyclododecine-1,4,7,10-tetraone | 74

Same assay, conditions: late stage modification step

Row | Substance | step yield [%]
2 | S-4-((3S,9S,14aR)-9-benzyl-6,6-dimethyl-1,4,7,10-tetraoxotetradeca-hydropyrrolo[1,2-a][1,4,7,10]tetraazacyclododecin-3-yl)butyl ethanethioate | 91
3 | (3S,9S,14aR)-9-benzyl-3-(but-3-enyl)-6,6-dimethyl decahydropyrrolo[1,2-a][1,4,7,10]tetraazacyclododecine-1,4,7,10-tetraone | 74
4 | ethyl 8-((3S,9S,14aR)-9-benzyl-6,6-dimethyl-1,4,7,10-tetraoxotetra-decahydropyrrolo[1,2-a][1,4,7,10]tetraazacyclododecin-3-yl)-3-oxooctanoate | 52
5 | (3S,9S,14aR)-9-benzyl-6,6-dimethyl-3-(7,7,7-trifluoro-6-oxoheptyl)-decahydropyrrolo[1,2-a][1,4,7,10]tetraazacyclododecine-1,4,7,10-tetraone | 49
6 | (3S,9S,14aR)-9-benzyl-3-(7-bromo-6-oxoheptyl)-6,6-dimethyldecahydropvrrolo[1,2-a][1,4,7,10]tetraazacyclododecine-1,4,7,10-tetraone | 75
7 | S-7-((3S,9S,14aR)-9-benzyl-6,6-dimethyl-1,4,7,10-tetraoxotetradecahydropyrrolo[1,2-a][1,4,7,10]tetraazacyclododecin-3-yl)-2-oxoheptyl O-ethyl carbonodithioate | 60
8 | (3S,9S,14aR)-9-benzyl-6,6-dimethyl-3-(6-oxooctyl)decahydro-pyrrolo[1,2-a][1,4,7,10]tetraazacyclododecine-1,4,7,10-tetraone | 50
